Test results from PMC6468293, “Double autoinhibition mechanism of signal transduction ATPases with numerous domains (STAND) with a tetratricopeptide repeat sensor” (Nucleic Acids Research, 2019).
No constants are given. Whether binding was seen depends on the method and setting. Where a sequence is shown, tags or fusion partners need not be part of it. Blank lines part the entries; values can stand above or below the binder they belong to.

Columns and labels:
[1] = biological target: His6-tagged MalT^M96C (E. coli) (UniProt P06993); test: SEC; analytical Superdex 200 PC3.2/30, room temperature; reducing conditions; without the inducer maltotriose (Supplementary Figure S9); both purified
[2] = biological target: His6-tagged MalT^H562C (E. coli) (UniProt P06993); test: as above
[3] = biological target: His6-tagged MalT^M96T (E. coli) (UniProt P06993); test: condition: only at low concentration (with ADP, no maltotriose); SEC; analytical Superdex 200, room temperature; Tris-HCl 50 mM pH 8.0, 10% sucrose, 0.033 M K3 citrate, 10 mM Mg acetate, 0.1 mM EDTA, 1 mM DTT, 0.1 mM ADP; no maltotriose; low protein concentration (2.5 μM); both purified
[4] = biological target: His6-tagged MalT^M96T,R171E (E. coli) (UniProt P06993); test: SEC; analytical Superdex 200 (column with a shifted calibration curve), same buffer with 0.1 mM ADP, no maltotriose; R171E variants at the indicated concentrations up to 60 μM; wt MalT at 10 μM as monomer reference; both purified
[5] = biological target: His6-tagged MalT^M96C,H562C (E. coli) (UniProt P06993); test: SEC; analytical Superdex 200 PC3.2/30, room temperature; reducing conditions; without the inducer maltotriose (Supplementary Figure S9); both purified
[6] = biological target: His6-tagged MalT^R171E (E. coli) (UniProt P06993); test: SEC; analytical Superdex 200 (column with a shifted calibration curve), same buffer with 0.1 mM ADP, no maltotriose; R171E variants at the indicated concentrations up to 60 μM; wt MalT at 10 μM as monomer reference; both purified

B1: His6-tagged MalT^M96C (natural protein, E. coli, UniProt P06993 1-901, looked up)
chain: MLIPSKLSRPVRLDHTVVRERLLAKLSGANNFRLALITSPAGYGKTTLISQWAAGKNDIGWYSLDEGDNQQERFASYLIAAVQQATNGHCAICETCAQKRQYASLTSLFAQLFIELAEWHSPLYLVIDDYHLITNPVIHESMRFFIRHQPENLTLVVLSRNLPQLGIANLRVRDQLLEIGSQQLAFTHQEAKQFFDCRLSSPIEAAESSRICDDVSGWATALQLIALSARQNTHSAHKSARRLAGINASHLSDYLVDEVLDNVDLATRHFLLKSAILRSMNDALITRVTGEENGQMRLEEIERQGLFLQRMDDTGEWFCYHPLFGNFLRQRCQWELAAELPEIHRAAAESWMAQGFPSEAIHHALAAGDALMLRDILLNHAWSLFNHSELSLLEESLKALPWDSLLENPQLVLLQAWLMQSQHRYGEVNTLLARAEHEIKDIREDTMHAEFNALRAQVAINDGNPDEAERLAKLALEELPPGWFYSRIVATSVLGEVLHCKGELTRSLALMQQTEQMARQHDVWHYALWSLIQQSEILFAQGFLQTAWETQEKAFQLINEQHLEQLPMHEFLVRIRAQLLWAWARLDEAEASARSGIEVLSSYQPQQQLQCLAMLIQCSLARGDLDNARSQLNRLENLLGNGKYHSDWISNANKVRVIYWQMTGDKAAAANWLRHTAKPEFANNHFLQGQWRNIARAQILLGEFEPAEIVLEELNENARSLRLMSDLNRNLLLLNQLYWQAGRKSDAQRVLLDALKLANRTGFISHFVIEGEAMAQQLRQLIQLNTLPELEQHRAQRILREINQHHRHKFAHFDENFVERLLNHPEVPELIRTSPLTQREWQVLGLIYSGYSNEQIAGELEVAATTIKTHIRNLYQKLGVAHRQDAVQHAQQLLKMMGYGV
notes: MalT, E. coli, His-tagged, pOM206 derivative; source: E. coli pop8012 (a BL21 ΔmalT strain) with a pOM206 derivative, purified (nickel-agarose chromatography, Superdex 200)
binding [1]: no binding (condition: in the absence of maltotriose)

B2: His6-tagged MalT^H562C (natural protein, E. coli, UniProt P06993 1-901, looked up)
chain: MLIPSKLSRPVRLDHTVVRERLLAKLSGANNFRLALITSPAGYGKTTLISQWAAGKNDIGWYSLDEGDNQQERFASYLIAAVQQATNGHCAICETMAQKRQYASLTSLFAQLFIELAEWHSPLYLVIDDYHLITNPVIHESMRFFIRHQPENLTLVVLSRNLPQLGIANLRVRDQLLEIGSQQLAFTHQEAKQFFDCRLSSPIEAAESSRICDDVSGWATALQLIALSARQNTHSAHKSARRLAGINASHLSDYLVDEVLDNVDLATRHFLLKSAILRSMNDALITRVTGEENGQMRLEEIERQGLFLQRMDDTGEWFCYHPLFGNFLRQRCQWELAAELPEIHRAAAESWMAQGFPSEAIHHALAAGDALMLRDILLNHAWSLFNHSELSLLEESLKALPWDSLLENPQLVLLQAWLMQSQHRYGEVNTLLARAEHEIKDIREDTMHAEFNALRAQVAINDGNPDEAERLAKLALEELPPGWFYSRIVATSVLGEVLHCKGELTRSLALMQQTEQMARQHDVWHYALWSLIQQSEILFAQGFLQTAWETQEKAFQLINEQCLEQLPMHEFLVRIRAQLLWAWARLDEAEASARSGIEVLSSYQPQQQLQCLAMLIQCSLARGDLDNARSQLNRLENLLGNGKYHSDWISNANKVRVIYWQMTGDKAAAANWLRHTAKPEFANNHFLQGQWRNIARAQILLGEFEPAEIVLEELNENARSLRLMSDLNRNLLLLNQLYWQAGRKSDAQRVLLDALKLANRTGFISHFVIEGEAMAQQLRQLIQLNTLPELEQHRAQRILREINQHHRHKFAHFDENFVERLLNHPEVPELIRTSPLTQREWQVLGLIYSGYSNEQIAGELEVAATTIKTHIRNLYQKLGVAHRQDAVQHAQQLLKMMGYGV
notes: as for B1
binding [2]: no binding (condition: in the absence of maltotriose)

B5: His6-tagged MalT^M96C,H562C (natural protein, E. coli, UniProt P06993 1-901, looked up)
chain: MLIPSKLSRPVRLDHTVVRERLLAKLSGANNFRLALITSPAGYGKTTLISQWAAGKNDIGWYSLDEGDNQQERFASYLIAAVQQATNGHCAICETCAQKRQYASLTSLFAQLFIELAEWHSPLYLVIDDYHLITNPVIHESMRFFIRHQPENLTLVVLSRNLPQLGIANLRVRDQLLEIGSQQLAFTHQEAKQFFDCRLSSPIEAAESSRICDDVSGWATALQLIALSARQNTHSAHKSARRLAGINASHLSDYLVDEVLDNVDLATRHFLLKSAILRSMNDALITRVTGEENGQMRLEEIERQGLFLQRMDDTGEWFCYHPLFGNFLRQRCQWELAAELPEIHRAAAESWMAQGFPSEAIHHALAAGDALMLRDILLNHAWSLFNHSELSLLEESLKALPWDSLLENPQLVLLQAWLMQSQHRYGEVNTLLARAEHEIKDIREDTMHAEFNALRAQVAINDGNPDEAERLAKLALEELPPGWFYSRIVATSVLGEVLHCKGELTRSLALMQQTEQMARQHDVWHYALWSLIQQSEILFAQGFLQTAWETQEKAFQLINEQCLEQLPMHEFLVRIRAQLLWAWARLDEAEASARSGIEVLSSYQPQQQLQCLAMLIQCSLARGDLDNARSQLNRLENLLGNGKYHSDWISNANKVRVIYWQMTGDKAAAANWLRHTAKPEFANNHFLQGQWRNIARAQILLGEFEPAEIVLEELNENARSLRLMSDLNRNLLLLNQLYWQAGRKSDAQRVLLDALKLANRTGFISHFVIEGEAMAQQLRQLIQLNTLPELEQHRAQRILREINQHHRHKFAHFDENFVERLLNHPEVPELIRTSPLTQREWQVLGLIYSGYSNEQIAGELEVAATTIKTHIRNLYQKLGVAHRQDAVQHAQQLLKMMGYGV
notes: as for B1
binding [5]: no binding (condition: in the absence of maltotriose)

Second part, the binder after the results:

binding [3]: no binding
B3: His6-tagged MalT^M96T (natural protein, E. coli, UniProt P06993 1-901, looked up)
chain: MLIPSKLSRPVRLDHTVVRERLLAKLSGANNFRLALITSPAGYGKTTLISQWAAGKNDIGWYSLDEGDNQQERFASYLIAAVQQATNGHCAICETTAQKRQYASLTSLFAQLFIELAEWHSPLYLVIDDYHLITNPVIHESMRFFIRHQPENLTLVVLSRNLPQLGIANLRVRDQLLEIGSQQLAFTHQEAKQFFDCRLSSPIEAAESSRICDDVSGWATALQLIALSARQNTHSAHKSARRLAGINASHLSDYLVDEVLDNVDLATRHFLLKSAILRSMNDALITRVTGEENGQMRLEEIERQGLFLQRMDDTGEWFCYHPLFGNFLRQRCQWELAAELPEIHRAAAESWMAQGFPSEAIHHALAAGDALMLRDILLNHAWSLFNHSELSLLEESLKALPWDSLLENPQLVLLQAWLMQSQHRYGEVNTLLARAEHEIKDIREDTMHAEFNALRAQVAINDGNPDEAERLAKLALEELPPGWFYSRIVATSVLGEVLHCKGELTRSLALMQQTEQMARQHDVWHYALWSLIQQSEILFAQGFLQTAWETQEKAFQLINEQHLEQLPMHEFLVRIRAQLLWAWARLDEAEASARSGIEVLSSYQPQQQLQCLAMLIQCSLARGDLDNARSQLNRLENLLGNGKYHSDWISNANKVRVIYWQMTGDKAAAANWLRHTAKPEFANNHFLQGQWRNIARAQILLGEFEPAEIVLEELNENARSLRLMSDLNRNLLLLNQLYWQAGRKSDAQRVLLDALKLANRTGFISHFVIEGEAMAQQLRQLIQLNTLPELEQHRAQRILREINQHHRHKFAHFDENFVERLLNHPEVPELIRTSPLTQREWQVLGLIYSGYSNEQIAGELEVAATTIKTHIRNLYQKLGVAHRQDAVQHAQQLLKMMGYGV
notes: MalT, E. coli, His-tagged, pOM206 derivative; About 20% aggregated after purification without nucleotide; concentration was corrected for this; also called M96T variant

binding [4]: no binding (tested: 60 μM)
B4: His6-tagged MalT^M96T,R171E (protein, UniProt P06993 1-901)
chain: MLIPSKLSRPVRLDHTVVRERLLAKLSGANNFRLALITSPAGYGKTTLISQWAAGKNDIGWYSLDEGDNQQERFASYLIAAVQQATNGHCAICETTAQKRQYASLTSLFAQLFIELAEWHSPLYLVIDDYHLITNPVIHESMRFFIRHQPENLTLVVLSRNLPQLGIANLEVRDQLLEIGSQQLAFTHQEAKQFFDCRLSSPIEAAESSRICDDVSGWATALQLIALSARQNTHSAHKSARRLAGINASHLSDYLVDEVLDNVDLATRHFLLKSAILRSMNDALITRVTGEENGQMRLEEIERQGLFLQRMDDTGEWFCYHPLFGNFLRQRCQWELAAELPEIHRAAAESWMAQGFPSEAIHHALAAGDALMLRDILLNHAWSLFNHSELSLLEESLKALPWDSLLENPQLVLLQAWLMQSQHRYGEVNTLLARAEHEIKDIREDTMHAEFNALRAQVAINDGNPDEAERLAKLALEELPPGWFYSRIVATSVLGEVLHCKGELTRSLALMQQTEQMARQHDVWHYALWSLIQQSEILFAQGFLQTAWETQEKAFQLINEQHLEQLPMHEFLVRIRAQLLWAWARLDEAEASARSGIEVLSSYQPQQQLQCLAMLIQCSLARGDLDNARSQLNRLENLLGNGKYHSDWISNANKVRVIYWQMTGDKAAAANWLRHTAKPEFANNHFLQGQWRNIARAQILLGEFEPAEIVLEELNENARSLRLMSDLNRNLLLLNQLYWQAGRKSDAQRVLLDALKLANRTGFISHFVIEGEAMAQQLRQLIQLNTLPELEQHRAQRILREINQHHRHKFAHFDENFVERLLNHPEVPELIRTSPLTQREWQVLGLIYSGYSNEQIAGELEVAATTIKTHIRNLYQKLGVAHRQDAVQHAQQLLKMMGYGV

binding [6]: no binding (tested: 60 μM)
B6: His6-tagged MalT^R171E (protein, UniProt P06993 1-901)
chain: MLIPSKLSRPVRLDHTVVRERLLAKLSGANNFRLALITSPAGYGKTTLISQWAAGKNDIGWYSLDEGDNQQERFASYLIAAVQQATNGHCAICETMAQKRQYASLTSLFAQLFIELAEWHSPLYLVIDDYHLITNPVIHESMRFFIRHQPENLTLVVLSRNLPQLGIANLEVRDQLLEIGSQQLAFTHQEAKQFFDCRLSSPIEAAESSRICDDVSGWATALQLIALSARQNTHSAHKSARRLAGINASHLSDYLVDEVLDNVDLATRHFLLKSAILRSMNDALITRVTGEENGQMRLEEIERQGLFLQRMDDTGEWFCYHPLFGNFLRQRCQWELAAELPEIHRAAAESWMAQGFPSEAIHHALAAGDALMLRDILLNHAWSLFNHSELSLLEESLKALPWDSLLENPQLVLLQAWLMQSQHRYGEVNTLLARAEHEIKDIREDTMHAEFNALRAQVAINDGNPDEAERLAKLALEELPPGWFYSRIVATSVLGEVLHCKGELTRSLALMQQTEQMARQHDVWHYALWSLIQQSEILFAQGFLQTAWETQEKAFQLINEQHLEQLPMHEFLVRIRAQLLWAWARLDEAEASARSGIEVLSSYQPQQQLQCLAMLIQCSLARGDLDNARSQLNRLENLLGNGKYHSDWISNANKVRVIYWQMTGDKAAAANWLRHTAKPEFANNHFLQGQWRNIARAQILLGEFEPAEIVLEELNENARSLRLMSDLNRNLLLLNQLYWQAGRKSDAQRVLLDALKLANRTGFISHFVIEGEAMAQQLRQLIQLNTLPELEQHRAQRILREINQHHRHKFAHFDENFVERLLNHPEVPELIRTSPLTQREWQVLGLIYSGYSNEQIAGELEVAATTIKTHIRNLYQKLGVAHRQDAVQHAQQLLKMMGYGV
